Measured values as given in PMC9481589.

The chains behind the UniProt entries cited, without tags or fusion partners. Where a name states a change or a piece, a line headed by the entry shows the natural chain unless it says otherwise.
UniProt Q57ZF5: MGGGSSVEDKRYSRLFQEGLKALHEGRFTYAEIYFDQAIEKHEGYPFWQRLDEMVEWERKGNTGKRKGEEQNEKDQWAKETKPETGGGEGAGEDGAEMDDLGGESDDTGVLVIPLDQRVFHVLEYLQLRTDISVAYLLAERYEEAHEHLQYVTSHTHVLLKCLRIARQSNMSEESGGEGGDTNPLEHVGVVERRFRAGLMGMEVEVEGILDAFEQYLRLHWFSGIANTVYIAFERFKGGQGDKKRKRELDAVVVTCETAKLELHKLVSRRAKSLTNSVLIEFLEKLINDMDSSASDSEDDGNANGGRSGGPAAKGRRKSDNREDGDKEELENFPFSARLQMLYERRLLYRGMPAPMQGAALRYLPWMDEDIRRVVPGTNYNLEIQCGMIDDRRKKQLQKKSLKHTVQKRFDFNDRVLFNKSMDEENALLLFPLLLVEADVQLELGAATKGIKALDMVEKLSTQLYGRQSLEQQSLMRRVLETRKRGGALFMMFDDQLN

B1: ESAG4 (expression site-associated gene 4 adenylate cyclase), endogenous (enzyme, UniProt Q26721 1-1235)
chain: MNMLHLSDRNASLAPSGGEHSLPTGGAVCRDAMDILPVILRAPVALLLLLVVLPQLSVGAEANVTVKVLSATWNWYMPRKYVTAINAGFNASLKSRNWTVAGSVNVQVVYPSNLDLMPEDFIKKQLELETDQNKIVIVYGPLGDKSVMHSIPHLMNHRVVAFGLITGSTFIRQWNPYLYFLRADPAAETLVLIRYSLCQLRVLRLGFMYLQGVHYGDEEYALTVNVMSRMGYELHGVFTVMSPDGKPAPDAEFKEVFERFATALPQAIIVFGAPVDDTAKFLMMMAVDERIARSYILSPSSVQLSLIEMWQLALEAAGASFAPGQLLFTGTNPLAKDSQYTAIKRFQEVMSEYLKAHVGETNITEADYFLTHDLEGELMVYGWISGEVLSQALSNLEWLKDRATFVRSLYDQRRYVINDIVIGDYGGTCEGDAAKHGATCECNQGSKAVYVKEMLENGQKTSVRSGFTVLKASLCYTDSSELHGPLDGLVVFMKDDDIASKAAALWQKGTSHLVGKGDLGYSDRFFLHAFNTTIAEAANDLRRDQGERIVTAVFGPVTEAMLDTPNITFIDPLELKPRLNKFRRNVIHLSPTLEQQLYVLSSYLAGAGVGNVDAVICSNEADGIADFLRSSLTEFAVSLRSAVIREDGEDVGKYLPMSGTVFVIGLSVPDVKEIARKLEERNDLRVIVLFGEFSFLYDLFATALNNTAGAARLVFATSLPHWGDTETSSKTAQLFHDVEKDSRLWTPLSVLAFATGRLMRVILLHVEEMSPETLVNFFYTDSSIVSDDMRYGVFDDTKCVDTANKLSKNGCASNYGATQISVWSMARALNASIPPLTNPMTPSMTFRNSNAGRISGASLVGIIIGGALALFLVVALGVVPYFFLRNTVITICTKDDRPVTLIFTDIESSTALWAAHPEVMPDAVATHHRLIRTLISKYECYEVKTVGDSFMIASKSPFAAVQLAQELQLCFLHHDWGTNAIDESYQQFEQQRAEDDSDYTPPTARLDPKVYSRLWNGLRVRVGIHTGLCDIRRDEVTKGYDYYGRTSNMAARTESVANGGQVLMTHAAYMSLSAEERQQIDVTALGDVPLRGVPKPVEMYRLNAVPGRTFSVLRLELELLNDDEDQTTTSCSDHSSSRTDLSVAAQTIAASLQSLLGTFTPAQRQKALIPFCERWRVPLPQKVGNVWDDDGCQEVVRRVAAKVGRVMDFGTRKPSSSVTSWKGVEVSSQVEERLL

Legend:
[1] = target: native CARP3 (cyclic AMP response protein 3) (Trypanosoma brucei (endogenous in bloodstream and procyclic forms)) (UniProt Q57ZF5); assay: co-IP; CARP3 pull-downs in procyclic ACP-mNG trypanosome lines
[2] = target: CARP3-YFP (cyclic AMP response protein 3 fused to YFP) (Trypanosoma brucei) (UniProt Q57ZF5); assay: co-IP; GFP-trap immunoprecipitation of CARP3-YFP from bloodstream form lysate; Western blot with antibody detection of ESAG4 and CARP3

Row | Molecule | binding [1] | binding [2]
1 | ACP5-mNG (adenylate cyclase ACP5 fused to mNeonGreen) (from UniProt Q382G3) (enzyme) | binds | –
2 | ACP4-mNG (adenylate cyclase ACP4 fused to mNeonGreen) (from UniProt Q388U2) (enzyme) | binds | –
3 | B1 | – | binds

No constants are given. Whether binding was seen depends on the method and setting. Binding seen in cells or lysates may run through a third protein. Binding calls can cover weak binding; strength is not graded here.
